Here are results for two molecules from article doi:10.1101/2020.07.20.211441.

The test concerns the target T1, XPA-binding protein (XAB)-2, biotin-tagged knock-in (mouse) (UniProt Q9DCD2).
T1 sequence (chain, biotin on the Avitag (by the BirA ligase in vivo)): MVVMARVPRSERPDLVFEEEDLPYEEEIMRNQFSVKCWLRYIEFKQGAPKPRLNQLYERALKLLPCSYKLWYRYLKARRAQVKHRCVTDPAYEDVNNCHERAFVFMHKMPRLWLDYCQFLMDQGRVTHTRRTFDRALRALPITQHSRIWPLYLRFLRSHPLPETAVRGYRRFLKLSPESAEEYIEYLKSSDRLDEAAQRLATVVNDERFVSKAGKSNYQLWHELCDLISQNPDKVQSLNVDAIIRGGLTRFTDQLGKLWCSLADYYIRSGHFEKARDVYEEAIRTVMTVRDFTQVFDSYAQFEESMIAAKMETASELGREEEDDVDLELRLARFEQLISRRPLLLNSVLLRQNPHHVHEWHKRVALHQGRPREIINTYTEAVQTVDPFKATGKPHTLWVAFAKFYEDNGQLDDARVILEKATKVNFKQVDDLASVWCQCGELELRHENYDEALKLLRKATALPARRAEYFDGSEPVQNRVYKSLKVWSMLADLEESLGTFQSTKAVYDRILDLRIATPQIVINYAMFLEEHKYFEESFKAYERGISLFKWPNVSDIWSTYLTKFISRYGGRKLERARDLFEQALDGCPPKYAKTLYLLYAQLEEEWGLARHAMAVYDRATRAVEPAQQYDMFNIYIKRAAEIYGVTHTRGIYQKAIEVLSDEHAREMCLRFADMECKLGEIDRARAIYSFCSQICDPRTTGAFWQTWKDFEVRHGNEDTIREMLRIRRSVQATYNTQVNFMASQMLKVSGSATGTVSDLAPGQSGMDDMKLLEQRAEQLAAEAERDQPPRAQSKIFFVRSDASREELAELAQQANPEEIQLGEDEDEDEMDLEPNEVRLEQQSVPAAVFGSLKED
Briefly: affinity purification with mass spectrometry.

These are yes or no findings as the source states them, for the method shown. In cells and extracts the contact can be indirect. A yes stands for co-enrichment or nearness to the bait. Other partners may have been found. Tags and fused reporters may be left off the sequences shown.

B1: NUP107 (protein, UniProt Q8BH74 1-926)
chain: MDRSGFGGMSSPVIRDAEVTRTARKHSAHKRVLIQANQEDNFGTATPRSQIIPRTPSSFRQPFVTPSSRSLLRHPDISYILGTEGRSPRHTQSSGYLGNLSMVTNLDDSNWAAAFSSQRLGLYTNTEHHSMTEDVNLSTVMLREDDPGEAASMSMFSDFLHSFLKHSSTTVFDLVEEYENICGSQVNILSKIVSRATPGLQKFSKTASMLWLLQQEMVTWRLLASLYRDRIQSSLEEENMFAIAGINASEKMVVETLFQRDSLVRQSQLVVDWLESIAKDEIGEFSDNIEFYAKSVYWENTLHSLKQRQLLSHMGSTRPLVTELDPDAPIRQKLPLDDLDREDEVRLLKYLFTLIRAGMTEEAQRLCKRCGQAWRAATLEGWKLYHDPNVNGGTELEPVEGNPYRRIWKISCWRMAEDELFNKYERAIYAALSGNLKQLLPVCDTWEDTVWAYFRVMVDSLVEQEIRTSVMTQDDSEELPREYMEANWTLEKVFEELQATDKKRVLEENQEHYHIVQKFLILGDVDGLMDEFSKWLSKSGSSLPGHLLRFMTHLILFLRTLGLQTKEEVSIEVLKTYIQLLISEKHTSLIAFYTCHLPQDLAVAQYALFLEGVTEFEQRHQCLELAKEADLDVATITKTVVENICKKDNGEFSHHDLAPSLDTGTTEEDRLKIDVIDWLVFDPAQRAEALRQGNAIMRKFLALKKHEAAKEVFVKIPQDSIAEIYNQWEEQGMESPLPAEDDNAIREHLCIRAYLEAHETFNEWFKHMNSAPQKPTLLSQATFTEKVAYEHREKKYEMDHNIWKGHLDALTADVKEKMYNVLLFVDGGWMVDVREDAEDDPERTHQMVLLRKLCLPMLCFLLHTILHSTGQYQECLQLADMVSSERHKLYLVFSKEELRKLLQKLRESSLMLLDQGLDPLGYEIQS
As for B1, the binding result was “binds”.

B2: SNRP40 (protein, UniProt Q6PE01 1-358)
chain: MIEQQKRKGPELPLVPVKRPRHELLLGAAGAGPGAGPQQATPGALLQAGPPRCSSLQAPIMLLSGHEGEVYCCKFHPNGSTLASAGFDRLILLWNVYGDCDNYATLKGHSGAVMELHYNTDGSMLFSASTDKTVAVWDSETGERVKRLKGHTSFVNSCYPARRGPQLVCTGSDDGTVKLWDIRKKAAVQTFQNTYQVLAVTFNDTSDQIISGGIDNDIKVWDLRQNKLTYTMRGHADSVTGLSLSSEGSYLLSNAMDNTVRVWDVRPFAPKERCVKIFQGNVHNFEKNLLRCSWSPDGSKIAAGSADRFVYVWDTTSRRVLYKLPGHAGSINEVAFHPDEPIILSASSDKRLYMGEIQ
With B2, the binding entry was “binds”.
